The record followed here is paper PMC10786037, “Autoinhibition in the Signal Transducer CIN85 Modulates B Cell Activation” (Journal of the American Chemical Society, 2023).

Chains of the proteins cited; added tags and fusions are not shown. Lines headed by an entry give the natural chain unless they say otherwise; changes in a name come on top.
UniProt Q96B97: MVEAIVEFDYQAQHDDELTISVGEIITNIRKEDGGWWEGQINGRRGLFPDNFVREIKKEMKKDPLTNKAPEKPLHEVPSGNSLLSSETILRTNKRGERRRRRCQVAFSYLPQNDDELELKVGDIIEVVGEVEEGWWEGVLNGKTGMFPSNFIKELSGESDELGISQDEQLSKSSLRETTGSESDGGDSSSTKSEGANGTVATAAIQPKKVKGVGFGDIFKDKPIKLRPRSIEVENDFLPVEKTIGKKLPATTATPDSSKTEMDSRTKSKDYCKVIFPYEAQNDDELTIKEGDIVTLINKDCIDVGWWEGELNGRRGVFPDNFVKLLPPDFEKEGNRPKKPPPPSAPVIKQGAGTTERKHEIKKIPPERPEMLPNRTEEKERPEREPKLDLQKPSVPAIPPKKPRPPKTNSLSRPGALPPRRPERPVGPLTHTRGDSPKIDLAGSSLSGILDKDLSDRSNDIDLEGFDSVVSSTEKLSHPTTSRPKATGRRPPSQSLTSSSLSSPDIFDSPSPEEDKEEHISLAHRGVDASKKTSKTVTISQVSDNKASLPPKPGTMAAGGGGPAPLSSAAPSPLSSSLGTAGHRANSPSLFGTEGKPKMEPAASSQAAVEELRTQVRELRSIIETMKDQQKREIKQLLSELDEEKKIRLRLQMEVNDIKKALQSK
UniProt Q8WV28: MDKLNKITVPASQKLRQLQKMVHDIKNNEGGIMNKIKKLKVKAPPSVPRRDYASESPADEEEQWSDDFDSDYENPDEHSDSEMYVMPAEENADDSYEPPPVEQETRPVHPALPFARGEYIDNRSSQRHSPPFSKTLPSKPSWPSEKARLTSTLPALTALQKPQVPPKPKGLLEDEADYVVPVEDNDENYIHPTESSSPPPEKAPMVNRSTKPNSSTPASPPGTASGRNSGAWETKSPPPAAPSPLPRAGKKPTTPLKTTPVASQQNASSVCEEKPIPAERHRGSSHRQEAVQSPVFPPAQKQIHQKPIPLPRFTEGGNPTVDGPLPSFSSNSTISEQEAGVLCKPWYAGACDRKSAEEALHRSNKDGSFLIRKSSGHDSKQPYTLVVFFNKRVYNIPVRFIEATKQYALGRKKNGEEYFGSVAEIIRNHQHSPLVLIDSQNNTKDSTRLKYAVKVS

The target in assay [1] is full-length citrine (cit)-CIN85 (human) (UniProt Q96B97). As to the kind of experiment: affinity purification with mass spectrometry; CIN85 purified from lysates of DG75 B cells expressing cit-CIN85 or cit-CIN85-S230A, resting and stimulated state; label-free mass spectrometry.
Assay [2] deals with full-length citrine (cit)-CIN85-S230A (human) (UniProt Q96B97). The assay is described as above.

These are yes or no findings as the source states them, for the method shown. In cells and extracts the contact can be indirect. These calls come from enrichment with a bait or labelling near it, and not all partners need be listed.

Turning to “Src homology 2 domain-containing leukocyte protein of 65 kDa (SLP65) (from UniProt Q8WV28 1-456)”, the binding entry in assay [1] and in assay [2] was “binds” throughout.
